The structures given here were assigned with low confidence; some may be wrong.
What was measured:
human CA-IV = human CA-IV (Homo sapiens, UniProt P22748); experiment: Carbonic Anhydrase-IV (CA-IV) Fluorescence Polarization Assay-IC50 Determination; format: binding; settings: read-out: IC50_CAIV
CAI = CAI (Homo sapiens, UniProt P00915); experiment: CAI IC50 (no method described); format: biochemical; settings: read-out: IC50_CAI
human CA-II = human CA-II (Homo sapiens, UniProt P00918); experiment: Carbonic Anhydrase-II (CA-II) Fluorescence Polarization Tight Binding Assay-Kd Determination; settings: read-out: Kd_CAII

By UniProt entry, the sequences of proteins in these tests, tags left out. Residues count along the entry.
UniProt P22748, 19-284 limits assumed: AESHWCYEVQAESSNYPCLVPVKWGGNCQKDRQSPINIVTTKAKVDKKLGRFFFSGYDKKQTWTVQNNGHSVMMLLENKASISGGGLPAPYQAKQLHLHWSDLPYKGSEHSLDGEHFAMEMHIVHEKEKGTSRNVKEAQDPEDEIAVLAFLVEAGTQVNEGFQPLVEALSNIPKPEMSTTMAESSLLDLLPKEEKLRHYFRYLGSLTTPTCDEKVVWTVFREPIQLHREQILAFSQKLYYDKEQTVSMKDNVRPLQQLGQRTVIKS
UniProt P00915, whole entry: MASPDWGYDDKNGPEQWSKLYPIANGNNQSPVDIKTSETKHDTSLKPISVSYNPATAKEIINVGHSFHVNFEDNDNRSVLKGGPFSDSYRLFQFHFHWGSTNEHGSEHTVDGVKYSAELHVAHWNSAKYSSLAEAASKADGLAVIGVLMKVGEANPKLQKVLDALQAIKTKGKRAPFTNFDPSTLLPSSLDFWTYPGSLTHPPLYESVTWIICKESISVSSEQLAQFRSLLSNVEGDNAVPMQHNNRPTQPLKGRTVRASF

Work on `CCCCN(C)C(=O)c1nc(Cc2ccccc2)n(-c2ccc(S(N)(=O)=O)cc2F)n1` yielded an IC50 (human CA-IV) of 169 nM, an IC50 (CAI) of 116 nM and a Kd (human CA-II) of 0.24 nM.
